Assay results: ChEMBL document CHEMBL1649066, “An imidazopiperidine series of CCR5 antagonists for the treatment of HIV: the discovery of N-{(1S)-1-(3-fluorophenyl)-3-[(3-endo)-3-(5-isobutyryl-2-methyl-4,5,6,7-tetrahydro-1H-imidazo[4,5-c]pyridin-1-yl)-8-azabicyclo[3.2.1]oct-8-yl]propyl}acetamide (PF-232798)” (J Med Chem, 2011)

Protein sequences, listed by entry. Tags and fused reporters are not part of them. Lines headed by an entry give the natural chain unless they say otherwise; changes in a name come on top.
UniProt Q12809: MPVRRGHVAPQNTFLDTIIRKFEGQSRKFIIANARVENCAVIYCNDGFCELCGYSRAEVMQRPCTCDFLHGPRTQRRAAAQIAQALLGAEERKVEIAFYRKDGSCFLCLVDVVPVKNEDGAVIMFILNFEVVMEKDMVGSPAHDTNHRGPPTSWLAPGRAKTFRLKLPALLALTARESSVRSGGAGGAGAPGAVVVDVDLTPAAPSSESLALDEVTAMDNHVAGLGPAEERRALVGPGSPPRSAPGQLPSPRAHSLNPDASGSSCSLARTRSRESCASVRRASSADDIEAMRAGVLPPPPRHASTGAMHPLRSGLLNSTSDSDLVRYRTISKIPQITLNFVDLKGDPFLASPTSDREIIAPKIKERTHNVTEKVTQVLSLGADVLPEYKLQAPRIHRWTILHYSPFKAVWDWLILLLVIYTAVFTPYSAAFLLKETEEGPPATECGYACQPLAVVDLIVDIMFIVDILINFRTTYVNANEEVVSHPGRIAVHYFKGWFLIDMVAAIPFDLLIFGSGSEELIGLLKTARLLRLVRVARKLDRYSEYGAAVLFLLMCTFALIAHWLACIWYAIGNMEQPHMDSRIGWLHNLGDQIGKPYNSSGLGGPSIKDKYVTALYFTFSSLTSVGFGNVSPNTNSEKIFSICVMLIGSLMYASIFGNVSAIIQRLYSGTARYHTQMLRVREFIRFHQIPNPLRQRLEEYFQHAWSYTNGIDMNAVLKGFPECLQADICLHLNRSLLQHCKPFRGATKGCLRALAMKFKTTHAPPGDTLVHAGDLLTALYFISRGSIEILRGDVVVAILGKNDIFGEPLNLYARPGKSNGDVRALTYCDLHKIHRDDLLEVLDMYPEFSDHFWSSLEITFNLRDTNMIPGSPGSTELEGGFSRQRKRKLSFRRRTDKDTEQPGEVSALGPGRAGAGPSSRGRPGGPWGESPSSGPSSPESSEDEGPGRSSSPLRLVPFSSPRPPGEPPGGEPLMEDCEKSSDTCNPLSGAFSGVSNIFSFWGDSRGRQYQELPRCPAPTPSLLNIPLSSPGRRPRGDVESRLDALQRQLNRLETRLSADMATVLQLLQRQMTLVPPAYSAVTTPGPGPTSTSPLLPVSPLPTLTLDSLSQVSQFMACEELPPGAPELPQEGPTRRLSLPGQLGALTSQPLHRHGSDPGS

How the values were obtained:
[1] = Octanol-buffer partition coefficient, log D of the compound; details: octanol/water
hERG (KCNH2) = hERG (KCNH2) (Homo sapiens, UniProt Q12809); assay: in vitro; details: hek293

In the case of `COC(=O)N1CCc2nc(C)n([C@H]3C[C@H]4CC[C@@H](C3)N4CC[C@H](NC(C)=O)c3cccc(F)c3)c2C1`, the logD [1] is reported as 1.9 and the inhibition at 0.3 µM (hERG (KCNH2)) is reported as 0%.
